PubChem BioAssay AID2685 (National Center for Advancing Translational Sciences (NCATS), 2010)
Some of the results follow. Further columns of the screen follow, without active or inactive calls. Most of these compounds were active or inconclusive in the main read-out, so they are no random draw. Words in brackets tell the shape of the fitted curve; partial curves, single points and poor fits give uncertain potencies.

Assay: qHTS Assay for Lipid Storage Modulators in Drosophila S3 Cells;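 on cell number change: cells counted by Cell Tracker Red CMTPX staining in the red channel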
Conditions: BODIPY lipid droplet fluorescence, 18-24 h; for cell number change: measured here: cell count max response, cells fed with added oleic acid
Summary of the method: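 Laser-scanning cytometry quantifies lipid droplet accumulation (500–530 nm total intensity; droplet/cell object ratio) in oleic acid-fed (400 uM added) Drosophila S3 cells treated with a concentration series. 20 uM Triacsin C defined 100% inhibition.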

[1] = measured here: lipid fluorescence (Fed channel) AC50, cells fed with added oleic acid
[2] = measured here: cell number channel AC50, cells fed with added oleic acid

| Structure (SMILES) | cell number change | AC50 [1] | AC50 [2] |
| --- | --- | --- | --- |
| CCN(CC(=O)NCc1ccc(Cl)cc1)C(=O)c1oc2ccccc2c1C | 28.6% | 0.58 µM [falling, single point] |  |
| COc1ccc(N2CCN(C(=O)COC(=O)c3cccc(S(=O)(=O)Nc4ccccc4OC)c3)CC2)cc1 |  | 5.17 µM [rising, single point] | 6.51 µM [rising, single point] |
| CCOc1ccc2nc(SCC(=O)N3c4ccccc4Sc4ccccc43)sc2c1 | 11% | 0.206 µM [rising, full curve] | 0.092 µM [rising, full curve] |
| N#Cc1ccc(Cl)cc1NC(=O)COC(=O)c1cccc(S(=O)(=O)N2CCOCC2)c1 | -10.6% | 0.058 µM [rising, full curve, poor fit] |  |
| CCCCC(=O)Nc1ccc(C(=O)NCCN2CCOCC2)cc1 | 9.42% | 1.84 µM [rising, partial curve, poor fit] |  |
| O=C(CSc1nc2ccc(Nc3nc(N4CCOCC4)nc(N4CCOCC4)n3)cc2s1)NCc1ccco1 | -39.3% | 23.1 µM [falling, single point] | 29.1 µM [falling, single point] |
| COc1ccc(NC2CCCN(C(=O)CCc3cn[nH]c3)C2)cc1 (stereo not drawn) | 23.1% | 0.00461 µM [rising, full curve, poor fit] |  |
| Cn1c(/N=C/c2c(O)ccc3ccccc23)nc2ccccc21 | -2.02% | 0.58 µM [falling, full curve] |  |
| O=C(CSc1nnc(SCc2ccc(Cl)cc2)s1)N/N=C/c1c[nH]c2ccccc12 | -75.2% |  | 16.4 µM [falling, partial curve] |
| O=[N+]([O-])c1cccc(-c2nnc(-c3ccc4c(c3)OCO4)o2)c1 | 83.3% | 0.231 µM [rising, full curve] | 0.259 µM [rising, full curve, poor fit] |
| CC(C)c1ccc(S(=O)(=O)N2CCN(C(=S)NCc3ccco3)CC2)cc1 | 16.7% | 23.1 µM [rising, single point] |  |
| CCn1c(COc2ccc(C)cc2)nnc1SCC(=O)Nc1cc(OC)ccc1OC | -34.1% |  | 0.82 µM [falling, full curve, poor fit] |
| Cc1ccc(C(=O)Cn2cnc3ccccc3c2=O)cc1C |  | 0.206 µM [rising, full curve, poor fit] |  |
| Cn1nc(-c2ccccc2)cc1NC(=O)c1cccs1 | -18.6% | 14.6 µM [falling, partial curve, poor fit] |  |
| O=C(Nc1ccc2c(c1)OCCO2)c1oc2ccccc2c1NC(=O)C1CC1 | -50.5% |  |  |
| C=CCN1C(=O)c2ccc(C(=O)N3CCN(S(=O)(=O)c4ccc(C(C)C)cc4)CC3)cc2C1=O | 77.1% |  | 18.4 µM [rising, partial curve] |
| CCOc1ccc(S(=O)(=O)NC(C)C(=O)NCc2ccc3c(c2)OCO3)cc1 (stereo not drawn) | 7.89% | 5.62 µM [falling, single point] |  |
| Cc1cc(OC(=O)c2ccc(C(C)(C)C)cc2)c([N+](=O)[O-])c(=O)[nH]1 | 1.89% |  |  |
| COc1ccc(NC(=O)C2Cc3ccccc3CN2C(=O)c2ccco2)cc1 (stereo not drawn) | 14.1% |  | 0.00517 µM [rising, full curve, poor fit] |

| Structure (SMILES) | cell number change | AC50 [1] | AC50 [2] |
| --- | --- | --- | --- |
| Cc1ccc2nsnc2c1NS(=O)(=O)c1c(C)ccc2nsnc12 | 15.5% | 0.82 µM [rising, partial curve] |  |
| COc1ccc(CNC(=O)CSc2nnc3nc(C)cc(C)n23)cc1OC | -13.7% | 25.9 µM [falling, single point] |  |
| CCN(CC)S(=O)(=O)c1ccc(OC)c(NC(=O)OCc2ccccc2)c1 | 33.3% |  | 20.6 µM [rising, single point] |
| O=[N+]([O-])c1ccc(CN2CCN(Cc3c[nH]c4ccccc34)CC2)cc1 | -1.78% |  |  |
| N#Cc1ccccc1Cn1c(=O)n(C2CCCC2)c(=O)c2ccccc21 | 126% |  | 14.6 µM [rising, partial curve] |
| Cc1cccc(C)c1NC(=O)COC(=O)c1cc(-c2cccnc2)nc2ccccc12 | 12.8% | 0.00461 µM [rising, full curve, poor fit] |  |
| CCC(=O)N1CCc2cc(S(=O)(=O)CCC(=O)NCCc3ccc(S(N)(=O)=O)cc3)ccc21 | 17.6% |  |  |
| Cc1ccc(Sc2c([N+](=O)[O-])c(=O)n(C)c3ccccc23)cc1 | -48.4% | 5.8 µM [falling, full curve] | 7.31 µM [falling, partial curve] |
| CCOC(=O)c1nnn(CC(=O)Nc2cc(F)ccc2F)c1C(=O)OCC | 35.6% |  | 1.84 µM [rising, partial curve] |
| COc1ccc(C(C#N)N2N=C(C)CC2c2ccccc2)cc1OC (stereo not drawn) | 21.1% |  | 0.00411 µM [rising, full curve, poor fit] |
| CCOc1ccc(NC(=O)c2ccc(NC(=O)C3CCCO3)cc2)cc1 (stereo not drawn) | 8.57% | 29.1 µM [rising, single point] |  |
| COc1ccc(Br)cc1CN(C)C(C)C(=O)Nc1cc([N+](=O)[O-])ccc1OC (stereo not drawn) | 16.2% | 0.731 µM [rising, full curve, poor fit] |  |
| Cc1ccccc1C(=O)N(Cc1cccs1)C1CCS(=O)(=O)C1 (stereo not drawn) | -9.52% | 16.4 µM [rising, single point] |  |
| N#Cc1c(NCCO)nc(NCc2ccccc2)c2c1CCN(Cc1ccccc1)C2 | -15.6% | 29.1 µM [rising, single point] |  |
| O=C(Nc1ccc2c(c1)OCO2)C1CCN(S(=O)(=O)c2cccs2)CC1 | -24.3% | 8.2 µM [falling, full curve, poor fit] |  |
| COc1ccc(-c2[nH]n(-c3ccc([N+](=O)[O-])cc3)c(=O)c2C=NCc2ccc(F)cc2)cc1 | -33.2% |  | 10.3 µM [falling, partial curve, poor fit] |
| Cc1ccc2cc(CN(C(=O)c3cccnc3)C(C)C)c(=O)[nH]c2c1 | 32.7% |  | 0.731 µM [rising, full curve, poor fit] |
| O=C(Oc1ccc2ccc(O)cc2c1)C1CCCCC1 | -20% | 0.517 µM [falling, single point] |  |

In a second layout: results already given.
Structure (SMILES)	cell number change	AC50 [1]	AC50 [2]
COc1ccc(Br)cc1CN(C)C(C)C(=O)Nc1cc([N+](=O)[O-])ccc1OC (stereo not drawn)	16.2%	0.731 µM [rising, full curve, poor fit]	
O=C(Nc1ccc2c(c1)OCO2)C1CCN(S(=O)(=O)c2cccs2)CC1	-24.3%	8.2 µM [falling, full curve, poor fit]	
